This experiment can be described thus: qHTS Assay to Find Inhibitors of Chronic Active B-Cell Receptor Signaling. Conditions: ABC-DLBCL IkBa-CBG/CBR reporter, luminescence ratio (green luciferase fused to IkBa over red control in TMD8 lymphoma cells), 4 h. In a few lines:
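Concentration-response series (up to 46 uM) were applied to TMD8 dual-reporter cells for 4 h at 37C with doxycycline. Green/red ratio, after filter-overlap correction, defined %Activity; red signal alone was normalised to basal cells and zero luminescence.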

Where [1] appears, read: measured here: CBR red luminescence, cell number.

Some of the results follow. These are further read-outs of the screen, such as a control signal, another cell line or another target. No call is given for them. Most of these compounds were active or inconclusive in the main read-out, so they are no random draw. Words in brackets tell the shape of the fitted curve; partial curves, single points and poor fits give uncertain potencies.

AC50 data for 64 molecules are collected here from PubChem BioAssay AID493014 (National Center for Advancing Translational Sciences (NCATS), 2011).

As usually defined, the AC50 is the midpoint of the concentration-response curve, whichever way the signal moves.

Turning to `Cn1c(SCC(=O)c2ccccc2)nnc1-c1cccnc1`, the AC50 under setting [1] was 2.82 µM [rising, single point].

On to `COc1ccc(CCNC(=O)C2CCN(S(=O)(=O)N3CCC(C)CC3)CC2)cc1OC`, for which the AC50 under setting [1] is 12.6 µM [rising, partial curve, poor fit].

On to `O=C(CSc1ccc(Cl)cc1)N1CCC(c2nc3ccccc3s2)CC1`, for which the AC50 under setting [1] is 35.5 µM [falling, single point].

As to `Cc1ccc(NC(=O)C2CCCN2S(=O)(=O)c2cccc3cccnc23)cc1F` (stereo not given), the AC50 under setting [1] is 2.59 µM [rising, single point].

With `CN(Cc1ccccc1)C(=O)CCS(=O)(=O)c1ccc2c(c1)n(C)c(=O)c(=O)n2C`, under setting [1], the AC50 is 0.103 µM [falling, full curve, poor fit].

On to `COc1cccc(NC(=O)CN(C)C(=O)c2cccc(S(=O)(=O)N3CCN(c4ccccc4)CC3)c2)c1`, for which, under setting [1], the half-maximal activity concentration (AC50) is 12.6 µM [falling, partial curve, poor fit].

On to `C/C(CC(=O)Nc1ccc2c(c1)OCO2)=N\NC(=O)c1ccc(N)cc1`, for which, under setting [1], the AC50 is 10 µM [falling, partial curve, poor fit].

On to `CO/N=C\C(=N\Nc1ccc(OC)cc1)C(=O)c1ccccc1`, for which, under setting [1], the AC50 was 1.84 µM [rising, partial curve, poor fit].

For the molecule `CCOc1cc(/C=C2\C(=N)N3N=C(S(=O)(=O)CC)SC3=NC2=O)ccc1OC(=O)c1ccco1`, under setting [1], the half-maximal activity concentration (AC50) was 15.8 µM [rising, single point].

Take `O=C(c1nc2ncccn2n1)N1CCN(c2ccc(F)cc2)CC1`: the AC50 under setting [1] was 18.4 µM [rising, single point].

Turning to `O=c1c2ccccc2nc(N/N=C/c2ccc(O)cc2)n1O`, the AC50 under setting [1] is 5.8 µM [falling, partial curve, poor fit].

In the case of `COc1cccc(N(CC(=O)NCCSCc2ccc(Cl)cc2)S(C)(=O)=O)c1`, the AC50 under setting [1] is 35.5 µM [falling, single point].

`CCNC(=S)N=Nc1c(O)[nH]c2ccc(C(C)C)cc12`: the AC50 under setting [1] was 23.1 µM [rising, partial curve].

Turning to `C/C(=N\Nc1ncc(Cl)cc1Cl)c1ccc(S(=O)(=O)NCc2ccco2)cc1`, the AC50 by setting is: under setting [1], 2.06 µM [rising, partial curve, poor fit]; (measured here: IkBa-CBG green luminescence) 18.4 µM [falling, single point].

As for `COc1cccc(C(=O)NCCS(=O)(=O)NC(C)CCc2ccccc2)c1` (stereo not given), the AC50 under setting [1] was 23.1 µM [falling, single point].

As to `CCn1c(Sc2nc(C)nc3scc(-c4cccs4)c23)n[nH]c1=O`, the AC50 under setting [1] is 7.08 µM [falling, partial curve, poor fit].

With `CCN(CC)CCCNC(=S)N1CCN(c2nc(-c3ccc(F)cc3)cs2)CC1`, the AC50 under setting [1] was 35.5 µM [falling, single point].

In the case of `COc1cc(/C=C/c2cc(C(=O)O)c3ccccc3n2)cc(OC)c1O`, under setting [1], the AC50 was 10 µM [falling, partial curve].

For the molecule `COc1cc(N(C)C)c([N+](=O)[O-])cc1C(=O)N1CCN(Cc2ccccc2)CC1`, the AC50 under setting [1] was 14.1 µM [falling, partial curve, poor fit].

As to `CCOc1ccccc1OCC(=O)Nc1cccc(S(=O)(=O)N2CCCCCC2)c1`, the AC50 under setting [1] was 25.9 µM [falling, partial curve, poor fit].

On to `CS(=O)(=O)c1ccc(NCCc2ccc(S(N)(=O)=O)cc2)c([N+](=O)[O-])c1`, for which the AC50 under setting [1] was 35.5 µM [falling, single point].

On to `COc1ccccc1NC(C)=[N+](C)CCNS(=O)(=O)c1ccc(Cl)cc1`, for which the AC50 under setting [1] was 22.4 µM [falling, single point].

Consider `CCOC(=O)C1CCCN(C(=O)c2ccc(C)cc2O)C1` (stereo not given), for which, under setting [1], the AC50 is 0.92 µM [rising, full curve, poor fit].

On to `CCC(C)OC(=O)C(C)Oc1ccc(-c2ccccc2)cc1` (stereo not given), for which, under setting [1], the AC50 is 25.9 µM [rising, partial curve, poor fit].

Regarding `CC(=O)c1ccc(NC(=O)[C@@H]2CCCN2C(=O)OC(C)(C)C)cc1`, under setting [1], the AC50 is 35.5 µM [falling, single point].

Regarding `Cn1nc(-c2ccc(Cl)cc2)c2cc(C(=O)NCc3ccco3)sc21`, the AC50 under setting [1] was 9.2 µM [falling, partial curve, poor fit].

Take `COc1ccccc1-c1cc(C(=O)Nc2cc(C)nn2-c2ccccc2)no1`: the AC50 under setting [1] is 2.31 µM [falling, full curve].

With `CC(=O)Oc1ccc2nc(-c3cccs3)oc(=O)c2c1`, under setting [1], the concentration at half-maximal activity (AC50) was 4.47 µM [falling, partial curve].

Consider `CCOCCn1ccc2c(OCC(=O)Nc3ccccc3F)cccc2c1=O`, for which the AC50 under setting [1] was 1.3 µM [falling, full curve].

Regarding `CCOC(=O)C1=C(c2ccccc2)OC(N)=C(C#N)C1c1ccncc1` (stereo not given), the concentration at half-maximal activity (AC50) under setting [1] is 10 µM [falling, partial curve].

`CCC(C)Sc1ccc(-c2nc3ccc(C)cn3c2NCc2ccccc2)cc1OC` (stereo not given): under setting [1], the AC50 was 29.1 µM [falling, single point].

As to `Cc1ccc(/C=C2\SC(N3CCCCC3)=NC2=O)cc1`, the AC50 under setting [1] is 0.631 µM [rising, full curve, poor fit].

Regarding `O=C1C2C3C=CC(CC3)C2C(=O)N1c1ccccc1[N+](=O)[O-]` (stereo not given), the AC50 under setting [1] was 20 µM [falling, partial curve].

Consider `O=C(N[C@@H](Cc1ccccc1)C(=O)OCc1ccccc1)c1nc[nH]c1C(=O)NCc1ccccc1`, for which, under setting [1], the AC50 is 6.31 µM [rising, single point].

On to `OC(COCc1ccc(Cl)cc1)CN1CCN(CC(O)COCc2ccc(Cl)cc2)CC1` (stereo not given), for which the concentration at half-maximal activity (AC50) under setting [1] is 32.6 µM [falling, single point].

In the case of `N#Cc1c(-c2cccnc2)cc(-c2ccccc2)nc1N`, the AC50 under setting [1] was 0.562 µM [falling, full curve, poor fit].

Take `CCCn1c(NCc2cccc(OC)c2O)nc2ccccc21`: the AC50 under setting [1] is 5.8 µM [falling, partial curve, poor fit].

For `Nc1cc(C(=O)OCC(=O)NCc2ccco2)ccc1Cl`, under setting [1], the half-maximal activity concentration (AC50) is 35.5 µM [falling, single point].

Take `CC(=O)c1ccc(S(=O)(=O)NCC(=O)Nc2nc3ccccc3[nH]2)cc1`: the AC50 under setting [1] was 16.4 µM [falling, single point].

With `Cc1ccnc(NC(=O)c2cc3c(=O)oc4ccc(C)cc4c3s2)c1`, under setting [1], the AC50 is 0.891 µM [rising, full curve, poor fit].

Turning to `COc1cccc(N2CCN(S(=O)(=O)c3cccc4cccnc34)CC2)c1`, the concentration at half-maximal activity (AC50) under setting [1] was 15.8 µM [falling, single point].

`Cc1ccc(N(C)C(=O)c2cc(S(=O)(=O)N3CCc4ccccc43)cn2C)cc1`: the AC50 under setting [1] was 35.5 µM [falling, single point].

Regarding `CCN(CC)c1ccc(CNc2ccc3c(c2)ncn3CC)cc1`, the AC50 under setting [1] is 12.6 µM [rising, partial curve].

Consider `COCCNc1ncnc2c1[nH]c1ccccc12`, for which, under setting [1], the AC50 is 10 µM [falling, partial curve, poor fit].

For `O=C(OCc1cccc([N+](=O)[O-])c1)c1cc(=O)[nH]c2ccccc12`, the AC50 under setting [1] is 0.708 µM [rising, full curve, poor fit].

As to `CCN(CC)C(=O)CN1C(=O)/C(=C/c2ccccc2)SC1=S`, the AC50 under setting [1] was 1.41 µM [rising, full curve].

As for `O=C(Nc1ccc(Cl)cn1)c1ccc(-c2cc(Cl)ccc2Cl)o1`, the AC50 under setting [1] is 10 µM [rising, partial curve, poor fit].

Take `Cc1ccccc1OCCCCc1c(C)n[nH]c1C`: the AC50 under setting [1] was 35.5 µM [rising, single point].

Consider `CCOc1cccc(-c2c(C(=O)N/N=C/c3sccc3C)nnn2-c2nonc2N)c1`, for which the AC50 under setting [1] was 35.5 µM [falling, single point].

Turning to `COc1ccc(-c2c(C)nn(-c3ccccc3)c2N)cc1OC`, the AC50 under setting [1] is 3.26 µM [rising, single point].

Consider `C(=N\Nc1nc2ccccc2[nH]1)/c1ccncc1`, for which the AC50 under setting [1] was 12.6 µM [falling, partial curve, poor fit].

Consider `N#CCc1ccc(Oc2ncc(C(F)(F)F)cc2Cl)cc1`, for which the half-maximal activity concentration (AC50) under setting [1] was 35.5 µM [rising, single point].

Turning to `Cc1c(C(=O)C(=O)N2c3ccc(F)cc3CCC2C)c2ccccc2n1C` (stereo not given), under setting [1], the half-maximal activity concentration (AC50) is 20.6 µM [rising, single point].

Regarding `CC(C)C(=O)Nc1nnc(CSCc2ccccc2F)s1`, under setting [1], the AC50 was 4.11 µM [rising, partial curve, poor fit].

Take `Cc1ccccc1NC(=O)Cc1nc(COC(=O)c2ccc(O)cc2O)cs1`: under setting [1], the AC50 was 22.4 µM [falling, single point].

For `CN(CC(=O)Nc1ccc(N2CCOCC2)cc1)C(=O)c1cc2c(s1)CCCC2`, the AC50 under setting [1] is 29.1 µM [rising, partial curve, poor fit].

For the molecule `C/C(=C\C(=O)c1ccccc1)Nc1cccc(O)c1`, under setting [1], the AC50 is 0.398 µM [rising, full curve, poor fit].

As to `Oc1ccc(Cl)cc1/C=N/c1nc2ccccc2[nH]1`, the AC50 under setting [1] is 10 µM [falling, partial curve].

With `CCN1CCN(Cc2ccc(NC(=O)c3ccc(C)c(NC(=O)c4cc(-c5ccc(Br)cc5)n[nH]4)c3)cc2C(F)(F)F)CC1`, the AC50 under setting [1] is 1.58 µM [falling, partial curve, poor fit].

As to `CC(=O)N1CCOc2cc(S(=O)(=O)NCc3ccc(F)cc3)c(C)cc21`, the concentration at half-maximal activity (AC50) under setting [1] was 35.5 µM [falling, single point].

Take `O=C(Nc1ccc2c(c1)CCCN2C(=O)c1cccs1)c1ccccc1`: the AC50 under setting [1] was 35.5 µM [falling, single point].

Consider `COC(=O)c1ccc(NC(=S)NCCC2=CCCCC2)cc1`, for which, under setting [1], the concentration at half-maximal activity (AC50) is 0.447 µM [falling, full curve, poor fit].

As to `CCOC(=O)C1(CCOc2ccccc2)CCN(CC2CC2)CC1`, the AC50 under setting [1] is 0.112 µM [rising, full curve, poor fit].

Take `O=C(c1ccc(Cl)cc1)c1c[nH]c(C(=O)NNc2ccccc2)c1`: the concentration at half-maximal activity (AC50) under setting [1] is 20 µM [falling, single point].
